The values that follow come from paper PMC9252588 (Drug Design, Development and Therapy, 2022).

“Also recorded” adds a separate entry of the source.

Series [1] deals with rat liver microsomes (RLMs). The series can be described thus: Enzymatic kinetics of axitinib inhibition of buspirone metabolism in RLMs. In kind it is in vitro ADME.
For series [2], the system named is rat liver microsomes (RLMs). The conditions noted are these: axitinib 100 μM.
Series [3] has as its system buspirone 6′-hydroxylation (formation of 6′-OH buspirone). In words: in vitro. Particulars: rat, rat liver microsomes, probe buspirone 50 μM.
Series [4] concerns buspirone N-dealkylation (formation of 1-PP). The series can be described thus: in vitro. Particulars: rat, rat liver microsomes, probe buspirone 50 μM. On the technique in general: Microsomes from liver hold many membrane-bound enzymes, among them those of drug oxidation.

As a reminder, the Ki is a measure of affinity in units of concentration, obtained from inhibition or displacement. For orientation: IC50 means the midpoint of a concentration-inhibition curve. Lower therefore signals greater potency. Consider `CNC(=O)c1ccccc1Sc1ccc2c(/C=C/c3ccccn3)n[nH]c2c1` [axitinib], for which the inhibition pattern entry in series [1] (6′-hydroxylation and N-dealkylation, Lineweaver–Burk plot) is recorded as “noncompetitive inhibition; also recorded: noncompetitive inhibitor”. Further, the Ki in series [1] (buspirone N-dealkylation, axitinib 0–30 μM) is 2.61 µM. Also, in series [2], the “inhibition of buspirone N-dealkylation” value stood at 98.4%. Moreover, the “inhibition of buspirone metabolism, 6′-hydroxylation pathway” value in series [2] amounted to 97.4%. Further, the values for the concentration for half-maximal inhibition (IC50) at 40 min in series [3] and in series [4] were 15.8 µM and 9.74 µM, respectively.
